Assay results from publication PMC11139207.

Target: T1, MSMEG_5860 (Mycobacterium smegmatis MC2 155) (UniProt A0R4J9)
T1 sequence (looked up): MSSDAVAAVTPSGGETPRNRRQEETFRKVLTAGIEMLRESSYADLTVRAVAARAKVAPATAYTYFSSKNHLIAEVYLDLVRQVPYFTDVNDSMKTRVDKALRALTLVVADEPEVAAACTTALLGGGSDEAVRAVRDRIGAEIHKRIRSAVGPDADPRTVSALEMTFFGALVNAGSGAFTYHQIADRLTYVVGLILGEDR
Test: EMSA
Details: room temperature, 20 min, binding buffer not given (as described previously), protein storage buffer 20 mM Tris-HCl, 100 mM NaCl, 1 mM DTT, 10% glycerol, recombinant protein, residues 1-199, protein details: N-terminal His6 (pET28a), probe letters rebuilt from the primers and the genome

Sequence: GGAGGAGAGCCTCCCATAGCTGCTGTGGCGAGTTGATTGCTCCAGGAAGTCTGCAAGCCATTCCGATGATGGCAACAGGAGCAACACAATTTTGAGTCAAAGCTTCCCCTACTAATGACGCGATCGGCGTACTTAGTACCACGGCCCGTATGCCACATGCCATCCGAGAAAAGCCGTGGCGAGGGGGGTTTTATTCGCTTTTCCGTAATCCGCCGCGGATCCAGCAATGCGCCATTGTTTAATGGCCGGACAAGATCAGCAATCGATCTTGATTTACGGTGACGTAAAACGCTAGTAGGGCTATCAAAACCCGGTAACAGTACCTTTTCAAAGTT (double strand) [S1 (MSMEG_4727p)]
- binding result: no binding

No signal at the amounts used counts as a negative. Tags and fusion partners may be left off the protein sequences shown.
